Test results as given in PubChem BioAssay AID2685 (National Center for Advancing Translational Sciences (NCATS), 2010).
The list shows a part of the results. Further columns of the screen follow, without active or inactive calls. The list favours compounds with an active or inconclusive main result. Potencies come from curve fits of mixed quality, noted in brackets.

Assay: qHTS Assay for Lipid Storage Modulators in Drosophila S3 Cells;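 on cell number change: cells counted by Cell Tracker Red CMTPX staining in the red channel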
Details: BODIPY lipid droplet fluorescence, 18-24 h; for cell number change: measured here: cell count max response, cells fed with added oleic acid
Method in brief: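 Drosophila S3 cells loaded with oleic acid (400 uM, as added) and compounds at several concentrations; lipid droplets imaged by 488-nm laser-scanning cytometry, 500–530 nm intensity and object ratio to cell channel. Percent activity normalized to 20 uM Triacsin C.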

[1] = measured here: lipid fluorescence (Fed channel) AC50, cells fed with added oleic acid
[2] = measured here: cell number channel AC50, cells fed with added oleic acid

Row | SMILES | cell number change [%] | AC50 [1] | AC50 [2]
1 | CC(C)CNC(=O)CN1c2cccc3cccc(c23)S1(=O)=O | 16.2 | 25.9 µM [rising, single point] | 
2 | CCOCCCNC(=O)c1c(N)n(-c2ccc3c(c2)OCO3)c2nc3ccccc3nc12 | 15.5 |  | 3.26 µM [rising, partial curve, poor fit]
3 | Cc1cc(C)nc(N(C#N)Cc2ccc(Br)cc2)n1 | -41.4 |  | 18.4 µM [falling, single point]
4 | CN(c1cccc(NC(=O)c2ccc(N(C)S(=O)(=O)c3ccccc3)cc2)c1)S(C)(=O)=O | -22.2 |  | 
5 | O=C1C2CCCN2C(=O)N1CCCCN1CCN(c2cccc(C(F)(F)F)c2)CC1 (centres undefined) | 16.8 | 0.58 µM [falling, single point] | 
6 | COc1cc(C(=O)Nc2ccc(Nc3ccccc3)cc2)cc(OC)c1OC | -49.7 |  | 18.4 µM [falling, single point]
7 | Cc1ccccc1NC(=O)c1ccc(CN(c2ccccc2)S(=O)(=O)c2ccccc2)cc1 | 9.28 |  | 
8 | Cc1cc(C)cc(N(CC(=O)NC2CCCC2)C(=O)CCC(=O)Nc2cc(C)on2)c1 | 5.46 | 29.1 µM [rising, single point] | 
9 | Clc1ccc(Oc2cnns2)cc1Cl | 41.1 |  | 23.1 µM [rising, single point]
10 | Cc1onc(-c2ccccc2Cl)c1C(=O)Nc1cccc2cccnc12 | -10.4 |  | 
11 | Cc1cnc(CNC(=O)c2ccc3oc(C(C)C)nc3c2)[nH]1 | -4.25 |  | 0.00461 µM [falling, full curve, poor fit]
12 | COc1ccccc1CN(C)CC(=O)NC(=O)NC1CCCCC1 | -18.8 | 3.26 µM [rising, full curve, poor fit] | 
13 | Cc1ccc(NCC(=O)N2CCN(S(=O)(=O)c3ccccc3)CC2)cc1F |  | 0.58 µM [falling, single point] | 
14 | Cc1ccc(O)c(NC(=S)NC(=O)Cc2ccc(Cl)cc2)c1 | -8.39 |  | 
15 | COc1ccc(CN(Cc2cc3cc4c(cc3[nH]c2=O)OCO4)C(=O)NC2CCCCC2)cc1 | 41.4 | 0.326 µM [rising, full curve] | 0.184 µM [rising, full curve, poor fit]
16 | Cc1ccc(NC(=O)CCSc2ccccc2)c(C)c1 | -46.2 | 7.31 µM [falling, partial curve] | 6.51 µM [falling, full curve]
17 | COc1ccccc1NC(=O)Nc1cccc(C)n1 | 29.8 | 29.1 µM [rising, single point] | 
18 | CCOC(=O)C1CCCN(C(=S)Nc2ccc(OC)cc2)C1 (centres undefined) | 16.8 |  | 
19 | O=C(CCNC(=O)N1CCn2c1nc1ccccc12)NCc1ccc(F)cc1 | -5.81 | 23.1 µM [falling, single point] | 
20 | Cc1cc(C(=O)NCc2ccc(F)cc2)n(-c2ccccc2)n1 | 25.6 | 2.06 µM [rising, full curve] | 0.058 µM [rising, full curve, poor fit]

2 of the compounds above, as a markdown table.

| Row | SMILES | cell number change [%] | AC50 [1] | AC50 [2] |
| --- | --- | --- | --- | --- |
| 1 | CC(C)CNC(=O)CN1c2cccc3cccc(c23)S1(=O)=O | 16.2 | 25.9 µM [rising, single point] |  |
| 2 | CCOCCCNC(=O)c1c(N)n(-c2ccc3c(c2)OCO3)c2nc3ccccc3nc12 | 15.5 |  | 3.26 µM [rising, partial curve, poor fit] |

Carrying on.

Row | SMILES | cell number change [%] | AC50 [1] | AC50 [2]
21 | CCn1nnc(NC(=O)c2ccccc2Br)n1 | 9.4 |  | 
22 | Brc1ccc(-c2noc(CCc3ccccc3)n2)o1 | -20 |  | 0.0731 µM [falling, partial curve, poor fit]
23 | COc1ccc(/C=N/NC(=O)c2cccc(OC(F)(F)C(F)F)c2)cc1O | 37.3 | 13 µM [rising, partial curve] | 10.3 µM [rising, partial curve]
24 | Cc1ccc(S(=O)(=O)N/N=C\c2cn(CC(N)=O)c3ccccc23)cc1C | -19.8 | 6.51 µM [rising, single point] | 
25 | CC(C)Cc1cc(CNC(=O)C2CCC(=O)N(CCc3cccc(F)c3)C2)on1 (centres undefined) | -4.89 | 0.146 µM [rising, full curve, poor fit] | 
26 | CCOC(=O)C(NC(=O)CCl)(Nc1sc(C)c(CC)c1C#N)C(F)(F)F (centres undefined) | -33.1 |  | 8.2 µM [falling, partial curve]
27 | O=C1c2ccccc2C(=O)N1CCC#Cc1ccc2cc(C3(O)CCCCC3)oc(=O)c2c1 | -40.9 | 29.1 µM [rising, single point] | 4.11 µM [falling, single point]
28 | CCN(CC)C(=O)n1c(Cc2ccccc2)nc2ccccc21 | -4.39 | 1.64 µM [falling, partial curve] | 
29 | CC1CCC(NCC(=O)Nc2cccc(S(N)(=O)=O)c2)CC1 (centres undefined) | 20.2 |  | 
30 | COc1ccc(S(=O)(=O)N(C)c2ccc(C(=O)NCc3ccccn3)cc2)cc1 | 15.1 | 0.411 µM [rising, single point] | 
31 | COc1cc(NC(=O)c2ccc(COCC(F)(F)F)cc2)cc(OC)c1OC | 18.4 | 23.1 µM [falling, partial curve] | 
32 | Cc1ccc(S(=O)(=O)N(C)CC(=O)Nc2nnc(CC(C)C)s2)cc1 |  | 0.58 µM [rising, full curve, poor fit] | 
33 | COc1ccccc1Nc1nc(N)nc(CN2CCCCCC2)n1 |  | 6.51 µM [falling, single point] | 
34 | COc1ccc(N2CCN(C(=O)C3CCN(S(=O)(=O)c4cccs4)CC3)CC2)cc1 | 40.1 |  | 0.0082 µM [rising, full curve, poor fit]
35 | COc1ccc(S(=O)(=O)NCc2ccccn2)cc1NC(=O)c1ccc(Cl)cc1 | 75.1 |  | 20.6 µM [rising, partial curve]
36 | Cc1ccc(C)c(S(=O)(=O)N/N=C2/CCCc3ccccc32)c1 | -1.39 | 0.517 µM [rising, full curve, poor fit] | 
37 | O=C1C(=O)N(CCCO)C(c2ccc(Br)cc2)/C1=C(\O)c1ccc(Br)cc1 (centres undefined) | 18.9 | 18.4 µM [rising, partial curve] | 
38 | Cn1nc(-c2ccc(NCCO)c([N+](=O)[O-])c2)c2ccccc2c1=O | -34 |  | 
39 | O=C(COC(=O)Cc1ccc(Cl)cc1)NC1CCCC1 | 1.34 | 2.31 µM [rising, partial curve, poor fit] | 
40 | COc1cc(NC(=O)COC(=O)CNC(=O)c2cc(C)cc(C)c2)c(C)cc1[N+](=O)[O-] | 14.7 | 0.461 µM [rising, full curve] | 
